Measurements reported in PubChem BioAssay AID1259405 (NCATS, 2018).
This is one part, drawn at random, of about 50,000 deposited reagents. About 4,000 of them (8%) were called active. 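Mouse siRNA library applied to hamster cells; one well for each siRNA.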 Unmarked entries are inactive. The numbers tell different reagents against one gene apart.

Assay: 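Knock-downs that lift recombinant protein yield in hamster ovary cells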 (primary screen)
System: Chinese hamster CHO-K1 ovary cells with stable secreted eGFP expression
Reagent: single siRNA against mouse genes, 0.8 pmol siRNA per well (2 µl of 400 nM stock)
Timing: 3 days
Measured: 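Per-well intracellular GFP measured by laser scanning cytometry, plus viability from ATP luminescence, each relative to plate median of non-targeting control wells, in %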
Reading the numbers: GFP, % of control: higher = more GFP per well, higher productivity; viability (ATP), % of control: higher = more viable cells (more ATP)
Hit rule: 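Called active when intracellular GFP, relative to negative control, is at or above 120%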

gene symbol	reagent	GFP, % of control	viability (ATP), % of control
Gzmc	1	96.6	58.8
Gzmc	2	29.9	54.2
Gzmc	3	92.1	79.8
Trim24	1	59.6	63.6
Trim24	2	116	91.4
Trim24	3	97.7	85.6
Or2m12	1	63.1	80.6
Or2m12	2	87.4	72.3
Or2m12	3	75.8	96.5
Psma1	1	19.2	6.13
Psma1	2	120	81
Psma1	3	22.3	13.5
Ptpn18	1	118	114
Ptpn18	2	101	91
Ptpn18	3	68.8	83
Egfl8	1	83.8	99.1
Egfl8	2	99.7	93.7
Egfl8	3	97	81.4
Zfp61	1	48.7	66.7
Zfp61	2	73	78.8
Zfp61	3	61.6	29
Rbbp4	1	96.4	83.9
Rbbp4	2	86.9	69.6
Rbbp4	3	111	86.9
Apex1	1	83.9	69.9
Apex1	2	81	63.1
Apex1	3	117	102
Lrrc49	1	60.2	48
Lrrc49	2	96.5	73.3
Lrrc49	3	95.6	66
Fchsd2	1	45.4	55.4
Fchsd2	2	65.5	57.8
Fchsd2	3	49.7	59.8
A430093F15Rik	1	47.8	55.5
A430093F15Rik	2	153 (active)	86.9
A430093F15Rik	3	74.6	51.4
Zcchc17	1	73.5	75.6
Zcchc17	2	118	48.7
Zcchc17	3	46.8	112
Airim	1	77.6	57.7
Airim	2	64.8	49.3
Airim	3	101	108
Sema3e	1	105	65.6
Sema3e	2	17.6	16
Sema3e	3	21.7	26
Or10ag2	1	13.6	15.4
Or10ag2	2	66.4	61
Or10ag2	3	113	65.1
Tmem40	1	59.4	65.3
Tmem40	2	90.9	73.3
Tmem40	3	85.8	93.8
Ankrd2	1	74.9	61.3
Ankrd2	2	58.8	63.3
Ankrd2	3	136 (active)	100
Btbd6	1	167 (active)	117
Btbd6	2	58.7	56
Btbd6	3	97	126
Armc1	1	89.2	52.8
Armc1	2	57.6	68.5
Armc1	3	70.7	90.9
Or2t46	1	73.2	54.6
Or2t46	2	62.8	58.2
Or2t46	3	54.8	82.4
Ces1g	1	94.2	71.5
Ces1g	2	105	75.7
Ces1g	3	55.3	92.5
Or6b2b	1	56.1	53.5
Or6b2b	2	112	79.3
Or6b2b	3	69.1	77.2
Thbs4	1	101	113
Thbs4	2	58.2	85.5
Or2y1g	1	84.5	79.1
Or2y1g	2	96.2	75.9
Or2y1g	3	55.4	92.9
Or1j17	1	60	67.3
Or1j17	2	94.3	65.2
Or1j17	3	45.4	69.1
Pptc7	1	74.6	84.6
Pptc7	2	58.3	54.2
Pptc7	3	73.9	96.8
Hes6	1	59.8	85.6
Hes6	2	60.2	83.2
Gtf2i	1	73.3	85.7
Gtf2i	2	36.5	38.4
Gtf2i	3	92.9	102
